No constants are given. Whether binding was seen depends on the method and setting. For part of these data: Binding seen in cells or lysates may run through a third protein. Some binding calls cover weakened binding; strength is not graded here.

The chains behind the UniProt entries cited, without tags or fusion partners. Where a name states a change or a piece, a line headed by the entry shows the natural chain unless it says otherwise. Residues count along the entry.
UniProt Q99627: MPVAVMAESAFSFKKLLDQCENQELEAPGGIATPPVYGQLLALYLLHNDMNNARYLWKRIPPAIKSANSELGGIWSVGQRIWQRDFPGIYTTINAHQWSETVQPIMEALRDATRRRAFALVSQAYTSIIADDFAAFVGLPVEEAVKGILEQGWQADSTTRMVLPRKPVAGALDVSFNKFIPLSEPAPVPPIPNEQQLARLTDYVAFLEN
Strep(II)-CSN8 (human, baculoviral co-expression): residues 2-209 of Q99627
UniProt Q13098: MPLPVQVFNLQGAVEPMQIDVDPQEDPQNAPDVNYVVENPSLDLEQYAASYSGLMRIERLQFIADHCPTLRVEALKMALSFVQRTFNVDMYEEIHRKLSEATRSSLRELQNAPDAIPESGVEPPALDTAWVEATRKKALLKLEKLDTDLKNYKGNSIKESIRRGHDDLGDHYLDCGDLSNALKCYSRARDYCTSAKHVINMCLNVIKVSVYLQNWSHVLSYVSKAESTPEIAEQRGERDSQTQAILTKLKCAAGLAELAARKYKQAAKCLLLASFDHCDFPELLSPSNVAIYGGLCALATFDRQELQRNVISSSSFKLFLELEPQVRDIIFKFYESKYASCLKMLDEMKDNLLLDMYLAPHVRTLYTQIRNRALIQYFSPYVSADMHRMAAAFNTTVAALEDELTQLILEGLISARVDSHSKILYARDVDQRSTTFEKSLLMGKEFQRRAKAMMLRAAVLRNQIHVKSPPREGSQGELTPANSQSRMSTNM
UniProt Q9UNS2: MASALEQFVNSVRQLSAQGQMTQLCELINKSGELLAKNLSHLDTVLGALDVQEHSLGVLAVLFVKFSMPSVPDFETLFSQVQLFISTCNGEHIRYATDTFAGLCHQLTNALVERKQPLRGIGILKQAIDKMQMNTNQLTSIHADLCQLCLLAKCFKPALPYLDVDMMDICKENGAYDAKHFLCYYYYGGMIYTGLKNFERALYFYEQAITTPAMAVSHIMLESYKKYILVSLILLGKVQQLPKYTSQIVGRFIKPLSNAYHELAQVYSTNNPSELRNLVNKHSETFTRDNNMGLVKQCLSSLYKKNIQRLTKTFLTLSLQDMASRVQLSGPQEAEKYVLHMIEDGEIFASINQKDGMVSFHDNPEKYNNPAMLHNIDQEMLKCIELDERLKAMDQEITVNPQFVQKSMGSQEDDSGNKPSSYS

Test [1] concerns the target COP9 signalosome subunit CSN8 (human (endogenous in HEK293)) (UniProt Q99627). Kind of test: SEC; 1 mg HEK293 lysate fractionated by SEC as for SEC-SWATH-MS; fractions of the CSN range run on SDS-PAGE and immunoblotted for CSN1, CSN3, CSN8, CSN4, CSN5, CSN7A; two independent replicates.
The target is the same in test [2]. Briefly: SEC; co-fractionation of native HEK293 lysate (freeze-thaw, 0.5% NP-40); Yarra-SEC-4000, 50 mM HEPES pH 7.5, 150 mM NaCl, 4°C; 81 fractions quantified by SWATH-MS; co-elution of protein profiles scored with CCprofiler (5% FDR) and by manual inspection.
Test [3] has as its target Strep(II)-CSN8 (human, baculoviral co-expression) (human) (UniProt Q99627). Briefly: pull-down; baculoviral co-expression in Sf21VM cells, mild lysis after 48 h, differential affinity purification on StrepTactin and Ni-NTA magnetic beads, SDS-PAGE with InstantBlue staining.

On to “COP9 signalosome subunit CSN1 (from UniProt Q13098 1-491)”, for which the binding result in test [1] and in test [2] was “binds” in each case.

On to “COP9 signalosome subunit CSN3 (from UniProt Q9UNS2 1-423)”, for which the binding entry in test [1] and in test [2] was “binds” in each case.

As for “His6-CSN1 (human, baculoviral co-expression) (from UniProt Q13098 1-491)”, the binding result in test [3] is given as “binds”.

As to “His6-CSN3 (human, baculoviral co-expression) (from UniProt Q9UNS2 1-423)”, in test [3], the binding entry was “binds”.

The values are drawn from PMC6346213.
